Residue numbers refer to the chain shown, from its start. Construct, isoform or probe ends are uncertain for at least one entry. At least one verdict rests on a figure or table, not on a statement of the authors. Tags and fusion partners may be left off the protein sequences shown.
Tests used:
[1] = target: T1, DDX21 core D339H/E340G (DEV mutant) (human) (UniProt Q9NR30); assay: MST; conditions: 2 mM AMPPNP, 2 mM MgCl2, stronger than WT, value only in figure, MST: 50 mM Tris pH 7.5, 50 mM KCl, 2 mM MgCl2, 1 mM TCEP, 0.01% NP-40, 0.05 mg/mL BSA, 50 nM FAM-RNA, temperature not given, recombinant protein, residues 188-563, protein details: N-terminal His-SUMO, removed by ULP1, label: FAM
T1 sequence (looked up): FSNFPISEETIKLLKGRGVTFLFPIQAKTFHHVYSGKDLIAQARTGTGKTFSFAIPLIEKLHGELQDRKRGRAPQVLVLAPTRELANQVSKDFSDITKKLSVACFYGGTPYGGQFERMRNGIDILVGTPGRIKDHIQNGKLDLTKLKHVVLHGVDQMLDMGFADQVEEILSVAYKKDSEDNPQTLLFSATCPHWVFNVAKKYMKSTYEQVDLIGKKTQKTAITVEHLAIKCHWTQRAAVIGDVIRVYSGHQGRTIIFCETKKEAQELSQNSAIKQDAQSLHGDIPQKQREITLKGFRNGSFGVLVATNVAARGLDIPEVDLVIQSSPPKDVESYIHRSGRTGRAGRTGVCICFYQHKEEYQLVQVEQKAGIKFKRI

DDX21 core D321A (human) = target: T2, DDX21 core D321A (human) (UniProt Q9NR30); assay: UV crosslinking; conditions: increased RNA binding; recombinant protein; residues 188-563; protein details: N-terminal His-SUMO, removed by ULP1; label: FAM
T2 sequence (looked up): T1 sequence (looked up) with D134A, H152D, G153E

UUUUUUUUUUUUUUU [FAM-U15]
binding result [1]: binds | binding result (DDX21 core D321A (human)): binds
